Test results from paper doi:10.1101/2020.11.22.393603 (bioRxiv, 2020).
No constants are given. Whether binding was seen depends on the method and setting. In cells and extracts the contact can be indirect. Some binding calls cover weakened binding; strength is not graded here. Where a sequence is shown, tags or fusion partners need not be part of it. One block for each binder: values may come before it.

How the values were obtained:
[1] = molecular target: T1, LSD1-sGFP (35S:LSD1-sGFP, Arabidopsis leaf protoplasts) (Arabidopsis thaliana) (UniProt P94077); assay: co-IP
T1 sequence: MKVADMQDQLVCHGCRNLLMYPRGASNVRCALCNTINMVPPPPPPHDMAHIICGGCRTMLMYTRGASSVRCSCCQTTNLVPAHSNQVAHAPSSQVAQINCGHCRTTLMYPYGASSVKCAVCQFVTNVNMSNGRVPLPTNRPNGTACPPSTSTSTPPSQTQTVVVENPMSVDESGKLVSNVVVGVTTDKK

[2] = molecular target: T2, LSD1-YFP^N (Arabidopsis thaliana) (UniProt P94077); assay: split reporter
T2 sequence: T1 sequence

binding [1]: binds
B1: LSD1-sGFP (35S:LSD1-sGFP, Arabidopsis leaf protoplasts) (protein, UniProt P94077 1-189)
chain: T1 sequence

binding [2]: binds
B2: LSD1-YFP^N (protein, UniProt P94077 1-189)
chain: T1 sequence
